PMC5363987
These are yes or no findings as the source states them, for the method shown. Binding seen in cells or lysates may run through a third protein. Some entries that bind do so weakly or less than the wild type. Tags and fused reporters may be left off the sequences shown.

Amino acid sequences for entries named in this document (tags omitted).
UniProt P52332: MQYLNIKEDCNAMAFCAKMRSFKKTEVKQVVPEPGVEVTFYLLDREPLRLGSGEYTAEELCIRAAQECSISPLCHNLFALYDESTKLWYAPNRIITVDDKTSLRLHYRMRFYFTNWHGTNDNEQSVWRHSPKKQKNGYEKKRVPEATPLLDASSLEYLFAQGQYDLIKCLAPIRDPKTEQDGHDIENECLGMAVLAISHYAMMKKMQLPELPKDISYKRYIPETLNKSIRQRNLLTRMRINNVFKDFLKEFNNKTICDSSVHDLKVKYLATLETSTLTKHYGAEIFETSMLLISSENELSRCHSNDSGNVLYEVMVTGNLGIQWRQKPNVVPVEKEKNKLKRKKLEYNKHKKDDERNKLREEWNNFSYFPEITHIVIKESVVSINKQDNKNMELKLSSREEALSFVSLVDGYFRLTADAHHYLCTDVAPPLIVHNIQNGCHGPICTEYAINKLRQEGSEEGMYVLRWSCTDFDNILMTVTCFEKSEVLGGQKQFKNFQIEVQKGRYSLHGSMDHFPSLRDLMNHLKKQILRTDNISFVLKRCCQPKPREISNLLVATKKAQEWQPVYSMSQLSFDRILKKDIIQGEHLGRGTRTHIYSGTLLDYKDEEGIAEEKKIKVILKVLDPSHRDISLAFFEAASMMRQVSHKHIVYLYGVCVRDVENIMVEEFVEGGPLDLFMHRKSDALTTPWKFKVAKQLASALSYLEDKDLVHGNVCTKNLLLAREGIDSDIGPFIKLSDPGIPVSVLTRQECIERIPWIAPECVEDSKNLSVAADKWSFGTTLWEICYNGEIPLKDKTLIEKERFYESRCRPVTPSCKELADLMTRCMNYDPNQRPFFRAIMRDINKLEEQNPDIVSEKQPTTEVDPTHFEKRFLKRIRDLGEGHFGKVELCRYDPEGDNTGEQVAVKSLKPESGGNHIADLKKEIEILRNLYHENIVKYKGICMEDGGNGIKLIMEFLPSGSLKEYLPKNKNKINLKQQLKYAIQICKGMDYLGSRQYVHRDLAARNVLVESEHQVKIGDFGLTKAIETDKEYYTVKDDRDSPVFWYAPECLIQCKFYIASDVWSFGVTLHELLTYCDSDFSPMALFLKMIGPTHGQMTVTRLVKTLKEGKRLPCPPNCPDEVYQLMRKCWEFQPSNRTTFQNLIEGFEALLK
UniProt Q62120: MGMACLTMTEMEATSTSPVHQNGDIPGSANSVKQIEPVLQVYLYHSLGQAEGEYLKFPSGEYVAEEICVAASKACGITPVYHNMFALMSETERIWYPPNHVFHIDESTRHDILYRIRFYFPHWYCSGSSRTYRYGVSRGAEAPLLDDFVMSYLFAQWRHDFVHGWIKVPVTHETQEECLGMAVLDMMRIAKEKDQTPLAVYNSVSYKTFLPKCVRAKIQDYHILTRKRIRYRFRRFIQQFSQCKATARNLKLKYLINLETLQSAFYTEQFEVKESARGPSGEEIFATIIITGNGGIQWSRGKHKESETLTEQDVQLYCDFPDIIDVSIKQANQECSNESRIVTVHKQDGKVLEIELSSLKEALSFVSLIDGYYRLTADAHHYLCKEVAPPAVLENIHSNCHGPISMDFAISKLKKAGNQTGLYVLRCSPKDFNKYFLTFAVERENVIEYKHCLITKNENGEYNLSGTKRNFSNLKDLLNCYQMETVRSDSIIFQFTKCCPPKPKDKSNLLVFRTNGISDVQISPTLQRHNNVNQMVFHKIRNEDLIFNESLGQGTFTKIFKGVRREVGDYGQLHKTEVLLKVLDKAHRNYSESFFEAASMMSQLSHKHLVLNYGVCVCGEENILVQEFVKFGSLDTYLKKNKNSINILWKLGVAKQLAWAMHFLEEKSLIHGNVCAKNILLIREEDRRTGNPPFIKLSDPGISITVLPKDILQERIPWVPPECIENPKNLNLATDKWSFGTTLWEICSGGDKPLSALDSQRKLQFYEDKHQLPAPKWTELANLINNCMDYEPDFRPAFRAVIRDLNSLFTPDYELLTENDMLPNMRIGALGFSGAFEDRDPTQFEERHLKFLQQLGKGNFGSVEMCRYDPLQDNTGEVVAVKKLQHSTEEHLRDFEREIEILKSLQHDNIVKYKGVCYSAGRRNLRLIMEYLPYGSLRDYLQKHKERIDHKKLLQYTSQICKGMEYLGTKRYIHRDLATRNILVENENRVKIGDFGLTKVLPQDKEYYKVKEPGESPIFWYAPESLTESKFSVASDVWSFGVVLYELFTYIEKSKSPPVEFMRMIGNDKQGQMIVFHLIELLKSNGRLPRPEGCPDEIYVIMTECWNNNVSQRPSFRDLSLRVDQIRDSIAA

Columns and labels:
[1] = target: T1, CUB and zona pellucida-like domain-containing protein 1 (CUZD1), endogenous in HC11 cells (mouse (endogenous in HC11)) (UniProt P70412); test: co-IP; HC11 cells, 48 h serum-free then 10% FBS for 24 h; lysate immunoprecipitated with CUZD1 antibody or IgG control; Western blot for CUZD1, JAK1, JAK2, pSTAT5
T1 sequence: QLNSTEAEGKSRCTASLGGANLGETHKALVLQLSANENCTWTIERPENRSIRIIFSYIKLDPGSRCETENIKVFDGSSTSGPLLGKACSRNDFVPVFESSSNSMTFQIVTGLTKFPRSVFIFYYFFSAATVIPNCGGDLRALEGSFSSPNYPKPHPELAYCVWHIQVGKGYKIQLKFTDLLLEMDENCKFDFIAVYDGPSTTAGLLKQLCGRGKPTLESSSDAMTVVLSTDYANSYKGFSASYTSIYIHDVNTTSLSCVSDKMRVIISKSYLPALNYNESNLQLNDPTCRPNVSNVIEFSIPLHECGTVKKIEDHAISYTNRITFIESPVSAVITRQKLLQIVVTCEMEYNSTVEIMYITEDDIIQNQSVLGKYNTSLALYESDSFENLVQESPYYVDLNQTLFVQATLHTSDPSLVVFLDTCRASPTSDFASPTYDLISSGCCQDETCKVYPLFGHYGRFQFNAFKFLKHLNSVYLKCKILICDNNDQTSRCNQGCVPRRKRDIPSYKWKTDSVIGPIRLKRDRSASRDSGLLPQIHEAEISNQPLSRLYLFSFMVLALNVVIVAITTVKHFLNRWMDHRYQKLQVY

[2] = target: T2, 3xFLAG-CUZD1 (recombinant FLAG epitope-tagged CUZD1) (UniProt P70412); test: co-IP; HC11-3xFLAG-Cuzd1 cells cultured with FBS, EGF and PRL for 6 h; precleared lysate, anti-FLAG M2 or mouse IgG control resin, elution with 3xFLAG peptide; Western blot for FLAG, JAK1, JAK2, pSTAT5
T2 sequence: T1 sequence

## Janus tyrosine kinase 1 (JAK1) (from UniProt P52332 1-1153)
[1]
  binding: binds
[2]
  binding: binds

## Janus tyrosine kinase 2 (JAK2) (from UniProt Q62120 1-1132)
[1]
  binding: binds
[2]
  binding: binds
